# Taken from: PubChem BioAssay AID504808 (Drosophila RNAi Screening Center, 2011)
# Purpose: 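Genes whose loss lifts activity of an E2F-responsive reporter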 (primary screen)
# Cell system: Drosophila S2 cells
# Knock-down reagent: long dsRNA against Drosophila genes
# Measured: 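Dual luciferase plate measurements; E2F-specific signal taken as firefly over Renilla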
# Reading the numbers: E2F firefly: higher = more E2F reporter activity; Renilla normaliser: higher = more normaliser reporter signal
# Call rule: 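a knock-down counted as active when the firefly/Renilla E2F signal rose above 50%, a threshold chosen arbitrarily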
# The deposit covers about 21,000 reagents; shown is an unselected part of those that have a named target and a result. Of all reagents, 18 (0.084%) were called active. 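Raw counts without plate normalisation, one of two replicates; the ratio scores behind the calls were not deposited.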 Names joined by + are all predicted targets of the reagent. No sequences are given here. Not stated in the record: the amount of reagent, the time to read-out.
predicted target,amplicon,"E2F firefly, rep 1","Renilla normaliser, rep 1",Call
Cyp18a1 (Cytochrome P450 18a1),DRSC20235,1.39e5,6269,inactive
Phlpp (PH domain leucine-rich repeat protein phosphatase),DRSC02065,99838,4386,inactive
prim (primacord),DRSC06575,1.43e5,6196,inactive
CG6149,DRSC10593,1.12e5,6459,inactive
Egm (Enigma),DRSC07319,2956,198,inactive
"SmydA-1 (SET and MYND domain containing, arthropod-specific, member 1)",DRSC07200,2665,194,inactive
CG31862,DRSC01245,1.32e5,5302,inactive
CG31189,DRSC16198,1.45e5,7788,inactive
cno (canoe),DRSC12054,84099,3867,inactive
cno (canoe),DRSC12374,50671,2215,inactive
CG15814,DRSC19730,1.72e5,6558,inactive
CG32301,DRSC08613,90317,3794,inactive
Wsck,DRSC13682,94051,3266,inactive
CG3544,DRSC00613,71783,3358,inactive
CG4367,DRSC15568,1.59e5,6911,inactive
CG8300,DRSC18426,8516,712,inactive
CG10418,DRSC09720,1.16e5,6716,inactive
RpL18 (Ribosomal protein L18),DRSC11016,99486,2606,inactive
CG7806,DRSC03071,90495,3476,inactive
CG8026,DRSC07055,3271,205,inactive
CG8026,DRSC07056,1.33e5,4992,inactive
CG31674,DRSC03208,1.11e5,4204,inactive
CG10041,DRSC14179,1.48e5,6325,inactive
CG42747,DRSC10209,1.03e5,4062,inactive
CG42747,DRSC10210,91616,3870,inactive
hppy (happyhour),DRSC07014,1.52e5,5417,inactive
hppy (happyhour),DRSC07015,1.56e5,5188,inactive
hppy (happyhour),DRSC07016,1.64e5,4970,inactive
CG14515,DRSC14867,1.17e5,6342,inactive
CG5961,DRSC15927,77239,3724,inactive
Tbc1d15-17 (TBC1 domain family member 15/17),DRSC00313,85563,3800,inactive
CG13315,DRSC09986,1.02e5,4229,inactive
pad (poils au dos),DRSC14227,1.17e5,6292,inactive
CG33459,DRSC05615,1.66e5,5288,inactive
"POLDIP2 (Polymerase (DNA-directed), delta interacting protein 2)",DRSC12194,72909,3674,inactive
CG14450,DRSC11707,1.49e5,6981,inactive
eIF1A (eukaryotic translation initiation factor 1A),DRSC16937,64553,5101,inactive
CG4822,DRSC00669,86467,3751,inactive
CG31195,DRSC13440,80435,2301,inactive
Osi21 (Osiris 21),DRSC02408,1.70e5,5926,inactive
sunz (sungrazer),DRSC12559,1.43e5,6578,inactive
CG33791 + CG12105 + CG18170,DRSC08387,80642,3552,inactive
CG12848,DRSC04128,1.08e5,4844,inactive
CG4815,DRSC15653,1.28e5,6083,inactive
Jhbp3 (Juvenile hormone binding protein 3),DRSC12247,1.24e5,6075,inactive
CG10466,DRSC02060,96849,3915,inactive
kek6 (kekkon 6),DRSC15299,52241,3598,inactive
Pgi (Phosphoglucose isomerase),DRSC07507,2617,208,inactive
CG31997,DRSC17105,80568,2123,inactive
CG15717,DRSC19684,1.06e5,6426,inactive
CG8046,DRSC07059,3088,195,inactive
CG8785,DRSC07266,3051,187,inactive
CG8229 + CG33199,DRSC05134,1.35e5,5545,inactive
enc (encore),DRSC08716,1.02e5,4314,inactive
CG7523,DRSC16254,66331,3452,inactive
CycB (Cyclin B),DRSC04605,73027,3620,inactive
Su(P) (Suppressor of ref(2)P sterility),DRSC11291,1.65e5,7051,inactive
